## Results of single-concentration screens

Data taken from ChEMBL document CHEMBL3988442, “University of Dundee, Small-Polar-MMV Screening Library” (2021).

Results are given as percent effect.
The controls that fix the scale are not given in the record; negative values are as filed.
The compounds are a random part of those screened.

Mtb glucose medium: 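Growth of Mycobacterium tuberculosis over 3 days (7H9 medium with glucose and tyloxapol); the read-out is not stated. Compounds at 500 µM. Direction is inferred from retests: higher values go with more growth inhibition. About 18,000 compounds were tested under these conditions; 7.9% (about 1,400) showed 50% or more at least once.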
Mtb cholesterol medium: 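Growth of Mycobacterium tuberculosis over 4 days (cholesterol / DPPC medium with tyloxapol); the read-out is not stated. Compounds at 500 µM. Direction is inferred from retests: higher values go with more growth inhibition. Of about 18,000 compounds tested this way, about 900 (5%) reached 50% or more in at least one test.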

| # | SMILES | Mtb glucose medium | Mtb cholesterol medium |
|---|---|---|---|
| 1 | `CNCCCNC(=O)c1ccc(C(C)=O)cc1` | 7.15% | 7.002% |
| 2 | `CCN(CC)CC(=O)Nc1sccc1C(N)=O` | -6.523% | -6.177% |
| 3 | `CCN(C(=O)N1CCC1)c1ccc(C#N)cn1` | 15.86% | 14.02% |
| 4 | `CN(C)CCC1CN(C(=O)C2CCC2)CCO1` (configuration not stated) | 6.778% | 5.129% |
| 5 | `OCCN1CCN(c2nc(-c3ccccc3)no2)CC1` | 59.47% | 60.11% |
| 6 | `CC1CN(C(=O)c2cc(Cl)c3c(c2)OCO3)CCO1` (configuration not stated) | 5.27% | 5.59% |
| 7 | `CCN(C)C(=O)C(C)NCc1ccc2c(c1)OCCO2` (configuration not stated) | 4.354% | 6.279% |
| 8 | `CCC(=O)[C@@H]1CCCN1` | -9.061% | -14.81% |
| 9 | `COc1ccccc1CC(=O)N1CCN(C(C)=O)CC1` | -1.564% | -7.101% |
| 10 | `COc1cc(CCN)ccc1Cl` | 49.59% | 12.77% |
| 11 | `Cc1cc(C(=O)N2CCOCC3(CC3)C2)n(C)n1` | 17.77% | 6.074% |
| 12 | `COc1ccc2c(c1)OCC(CNS(=O)(=O)N(C)C)C2` (configuration not stated) | 22.21% | 27.73% |
| 13 | `CC(C)Oc1cccc(CN)c1` | 42.37% | 41.01% |
| 14 | `Clc1ccc2nc(CN3CCOCC3)cn2c1` | 21.69% | 8.349% |
| 15 | `CN(CCCO)C1CCN(C(=O)Nc2ccsc2)CC1` | 6.588% | 3.205% |
| 16 | `CS(=O)(=O)N1CCC(C(=O)NCC2CCCO2)CC1` (configuration not stated) | 6.221% | -8.013% |
| 17 | `CC(Cc1ccco1)NC(=O)c1cccnc1O` (configuration not stated) | 31.58% | 11.42% |
| 18 | `O=C(NCCc1cccnc1)c1cc(C2CC2)on1` | 53.62% | -5.424% |
| 19 | `COc1cccc(CNn2cnnc2)c1O` | 10.06% | 10.65% |
| 20 | `Cc1csc(CN)c1` | 28.06% | 14.81% |
| 21 | `COC(=O)CCN(C)S(=O)(=O)c1ccccc1` | 41.77% | 20.97% |
| 22 | `Cc1noc(C(C)N2CCC(C)CC2)n1` (configuration not stated) | -2.154% | -3.837% |
| 23 | `COc1ccc(NC(=O)N2CC=C(C)CC2)c(OC)n1` | 28.69% | 10.93% |
| 24 | `O=S(=O)(CCN1CCC[C@H]1CO)c1ccccc1` | 51.41% | 34.75% |
| 25 | `O=c1c2ccc(F)cc2ncn1CCN1CCNCC1` | -0.1063% | 6.396% |
| 26 | `COCCNCc1cn(CCC(N)=O)c2ccccc12` | 2.839% | 1.8% |
| 27 | `CCC(=O)N1CCCC(NS(C)(=O)=O)C1` (configuration not stated) | 7.706% | 3.302% |
| 28 | `Cc1nnc(SCCCNC(=O)C2CNCCO2)s1` (configuration not stated) | 15.37% | 2.507% |
| 29 | `O=C(NC(C1CCNCC1)[C@H]1C[C@H](O)C1)C1(CO)CC1` (some centres not stated) | 4.316% | -0.4853% |
| 30 | `NC(=O)CCN1CCCN(Cc2ccccc2F)CC1` | 24.85% | 19.88% |
| 31 | `O=C(NC1=NCCS1)c1cc(Br)c[nH]1` | 25.36% | 14.38% |
| 32 | `CCOCCN(C)Cc1cccnc1C` | 1.698% | 1.056% |
| 33 | `N#CCCn1cc(C(N)=O)cn1` | -6.751% | -18.01% |
| 34 | `NCC(Cc1ccc(F)c(F)c1)C(N)=O` (configuration not stated) | 42.91% | 13.73% |
| 35 | `CN1N=C(C(=O)NC2CCCc3occc32)CCC1=O` (configuration not stated) | 23.97% | 19.89% |
| 36 | `COc1nc(C)ccc1C#N` | -1.531% | -9.478% |
| 37 | `NCc1ccnc(OCC2CC2)c1` | -9.656% | -15.45% |
| 38 | `CN(C)C(=O)CN(C)c1ncc(C(F)(F)F)cc1Cl` | 31.5% | 14.72% |
| 39 | `COCCn1cnnc1CN(C)Cc1c[nH]c(C)n1` | -3.804% | -3.12% |
| 40 | `COCCN1CCCC(NC2CCOCC2)C1` (configuration not stated) | -6.069% | -4.46% |
| 41 | `O=S1(=O)N=C(NCCCn2cccn2)c2ccccc21` | 6.713% | 2.906% |
| 42 | `CC(=O)NCCc1cn2cccc(C)c2n1` | 7.838% | 6.196% |
| 43 | `Cc1cccc2nc(C(=O)NCCOCCO)c(F)n12` | 4.91% | 7.043% |
| 44 | `CC(C)Cc1ccc(CS(=O)(=O)CCO)cc1` | 74.51% | 80.52% |
| 45 | `CNc1nc(CN(C)CCn2ccnc2C)cs1` | 24.63% | 1.967% |

Some entries from above, unchanged:

SMILES,Mtb glucose medium,Mtb cholesterol medium
COc1cc(CCN)ccc1Cl,49.59%,12.77%
Cc1nnc(SCCCNC(=O)C2CNCCO2)s1 (configuration not stated),15.37%,2.507%
N#CCCn1cc(C(N)=O)cn1,-6.751%,-18.01%